# Some entries share one result that the patent states for a list of compounds. For at least one compound, name, drawing or mass did not settle the structure.
# Test system: HUVEC cells
# Assay: HUVEC culture 72 hours, fast green / alizarin red s staining, MCAD
# Type: cell-based, human
# Conditions: lard 1 mg/ml, saline vehicle shows no MCAD
structure (smiles),measurement,value
"C[S+](C)[O-] [50% DMSO, DMSO]",MCAD on a scale where MCAD caused by lard is 1200,less than 500

# Source: patent publication US8623613B2, “Method to detect endothelial cell massive calcium accumulation death” (priority 2010, dated 2014)
